Test results taken from PubChem BioAssay AID504582 (Broad Institute, 2011).
Among all 340,000 compounds or so, about 2,300 (0.68%) were called active. The inconclusive results got no clear call from the source; some entries with a clear call stand among them for comparison. Rule as the data show it: active = growth rescue above about 28% (passing the limit was not always enough); inconclusive = no clear call, values can overlap the other calls.

Assay: rescue of yeast from PfHsp40 toxicity, primary screen, S. cerevisiae, ATP luminescence (AID 504582);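 also: yeast W303a lacking pdr1 and pdr3 grown in galactose medium; growth measured after three days at 30 °C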
Details: S. cerevisiae expressing PfHsp40, growth rescue, at 12.5 µM, hits give high values

| SMILES | growth rescue |
| --- | --- |
| Cc1cccc(C(=O)NC2CCN(CC(=O)Nc3ccccc3Cl)CC2)c1 | inactive: 0.0535% |
| Cn1c(-c2ccc(Br)o2)nc2ccccc21 | inactive: -0.884% |
| Cc1ccc(C)c(NC(=O)NNC(=O)c2cc3ccccc3cc2O)c1 | inconclusive: 28.8% |
| Cc1sc(NC(=S)NC(=O)CCc2ccccc2)c(C(N)=O)c1C | inactive: -2.25% |
| CN(C)C(=O)N1CCN(S(=O)(=O)c2ccc3ccccc3c2)CC1 | inconclusive: 29.9% |
| NC(=S)N/N=C/c1ccc(-c2ccc(Cl)c(Cl)c2)o1 | inconclusive: 146% |
| COc1ccccc1C=NNC(=O)NN=Cc1ccccc1OC | inactive: -1.89% |
| Cc1ccc(C)c(-n2c3nc(=O)[nH]c(=O)c-3cc3cc([N+](=O)[O-])ccc32)c1 | inactive: -1.2% |
| CC(C)(C)OC(=O)N/N=C/c1cccn1-c1ccc([N+](=O)[O-])cc1 | inconclusive: 31.8% |
| CN(C)CCNC(=O)c1onc(CSc2ccc(F)cc2)c1C(=O)NCCN(C)C | active: 33.8% |
| O=C(CN1C(=O)COc2ccccc21)N1CCN(c2ccccc2F)CC1 | active: 83.5% |
| CCOc1cc(/C=N/Nc2nc(-c3cccc(S(=O)(=O)N4CCCC4)c3)cs2)ccc1O | inconclusive: 30.8% |
| CC(C)(C)c1cc(C(c2cccnc2)N2CCN(CCO)CC2)cc(C(C)(C)C)c1O (stereo not given) | active: 30% |
| O=C(/C=C/c1ccccc1[N+](=O)[O-])OCC(=O)N1CCCC1 | active: 48.9% |
| CSCCC(NS(=O)(=O)c1ccc(C)cc1)C(=O)N1CCCCCCC1 (stereo not given) | inactive: -1.81% |
| C/C(=N\NC(=O)c1cccc(S(=O)(=O)N2CCCC2)c1)c1ccc(OCC(=O)N(C)C)cc1 | inconclusive: 29.7% |
| O=C(CSc1ccc2ccccc2c1)Nc1ccncc1 | inconclusive: 27.4% |
| Cc1cc(C)cc(OCc2ccc(C(=O)NC3CCOC3=O)o2)c1 (stereo not given) | inconclusive: 27.2% |
| CCC(C)Cn1c(S(=O)(=O)O)nc2ccccc21 (stereo not given) | inactive: -0.154% |
| CCN(CCO)c1ccc(N=Nc2cc(C)[nH]n2)cc1 | inactive: -0.564% |
| Cc1cc(NC(=S)N(Cc2ccc(Br)cc2)Cc2ccc(C(=O)O)cc2)ccc1Cl | inconclusive: 141% |
| Cc1ccc(C(=O)c2c(NC(=O)c3ccncc3)sc3c2CCCC3)cc1 | inconclusive: 28.2% |
| CC1CCN(c2oc(Cc3cccc4ccccc34)nc2C#N)CC1 | inconclusive: 30.8% |
| CC(C)C[C@H](N)c1nnc(S(=O)(=O)Cc2ccc(F)cc2)o1 | inconclusive: 133% |
| COc1ccccc1NC(=O)NCCc1ccccc1 | inconclusive: 46.7% |

In a second layout: 2 of the compounds above.
Cc1ccc(C)c(-n2c3nc(=O)[nH]c(=O)c-3cc3cc([N+](=O)[O-])ccc32)c1
  growth rescue: inactive: -1.2%
CC(C)(C)OC(=O)N/N=C/c1cccn1-c1ccc([N+](=O)[O-])cc1
  growth rescue: inconclusive: 31.8%
